Test results as given in doi:10.1101/593137.
Read-outs that look alike come from different tables or passages of the source. Results are given in words; binding and its absence hold for the method and conditions named. In cells and extracts the contact can be indirect. Some entries that bind do so weakly or less than the wild type. Each block holds one binder with its values, some of them ahead of it.

How the values were obtained:
[1] = target: T1, CTCF (human) (UniProt P49711); test: co-IP
T1 sequence: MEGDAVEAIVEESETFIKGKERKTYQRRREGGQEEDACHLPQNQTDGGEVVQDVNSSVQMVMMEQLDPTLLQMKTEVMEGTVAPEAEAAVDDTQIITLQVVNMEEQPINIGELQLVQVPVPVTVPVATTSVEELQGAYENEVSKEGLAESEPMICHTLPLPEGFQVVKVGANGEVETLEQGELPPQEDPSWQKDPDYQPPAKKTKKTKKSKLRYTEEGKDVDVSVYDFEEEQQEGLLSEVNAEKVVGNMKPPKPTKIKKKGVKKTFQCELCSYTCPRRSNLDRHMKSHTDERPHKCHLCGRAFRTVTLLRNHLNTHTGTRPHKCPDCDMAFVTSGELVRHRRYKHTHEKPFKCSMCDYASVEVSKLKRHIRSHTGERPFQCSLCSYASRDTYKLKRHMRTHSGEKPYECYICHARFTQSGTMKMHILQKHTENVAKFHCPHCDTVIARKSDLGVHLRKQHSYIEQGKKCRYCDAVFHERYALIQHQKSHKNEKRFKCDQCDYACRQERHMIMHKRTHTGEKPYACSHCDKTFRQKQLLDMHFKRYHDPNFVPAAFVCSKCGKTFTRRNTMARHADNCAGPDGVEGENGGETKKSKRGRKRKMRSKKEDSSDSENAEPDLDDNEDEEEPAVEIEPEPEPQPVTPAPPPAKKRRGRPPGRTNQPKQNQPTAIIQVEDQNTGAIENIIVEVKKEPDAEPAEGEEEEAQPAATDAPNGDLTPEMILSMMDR

[2] = target: T1, CTCF (human); test: co-IP; remark: listed apart in the source
[3] = target: T1, CTCF (human); test: co-IP; remark: listed apart in the source
[4] = target: T1, CTCF (human); test: co-IP; remark: listed apart in the source
[5] = target: T1, CTCF (human); test: proximity ligation
[6] = target: T1, CTCF (human); test: co-IP; remark: listed apart in the source
[7] = target: T2, CGGBP1 (human) (UniProt Q9UFW8); test: co-IP
T2 sequence: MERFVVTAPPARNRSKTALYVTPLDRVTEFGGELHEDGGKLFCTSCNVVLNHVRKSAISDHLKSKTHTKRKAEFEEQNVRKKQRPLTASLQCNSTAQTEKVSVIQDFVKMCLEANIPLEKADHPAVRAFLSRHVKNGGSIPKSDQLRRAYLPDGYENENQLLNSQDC

[8] = target: T2, CGGBP1 (human); test: co-IP; remark: listed apart in the source

binding [1]: binds | binding [2]: binds | binding [3]: binds weakly | binding [4]: binds | binding [5]: binds | binding [6]: binds weakly
B1: CGGBP1 (protein, UniProt Q9UFW8 1-167)
chain: T2 sequence

binding [7]: binds | binding [8]: binds
B2: CTCF (protein, UniProt P49711 1-727)
chain: T1 sequence
